The test deals with HEK293A TEAD-LUC reporter. The test can be described thus: TEAD-luciferase reporter activity (YAP activation), robust Z score vs plate; higher = stronger YAP/TEAD activation. The following applies: 24 h. Background: Reporter assays use an easily measured gene product as a stand-in for the process of interest.

The list shows a part of the results. Repeats in this data set agree poorly, so a single value says little.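 The human kidney-derived cells carry a stably integrated construct of eight TEAD-binding elements driving luciferase, read by luminescence in a drug-repurposing library screen. A compound counts as a hit when its signal is more than five robust Z scores above the plate mean.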

For the molecule `CC1OC(OC2CCC3(C=O)[C@H]4CCC5(C)C(C6=CC(=O)OC6)CCC5(O)[C@@H]4CCC3(O)C2)C(O)C(O)C1O` (some centres not stated), the TEAD-luciferase reporter activity is active: 25.9 (compound concentration: 200 nM), inactive: -2.47 (compound concentration: 2 uM) and inactive: 1.64 (compound concentration: 10 uM).
The like results for `CC1(C)[C@H]2O[C@H]2[C@H]2[C@](C)(O)[C@@H]3CC[C@@H]4[C@@H](O)[C@@]3(C[C@@H](O)[C@@]21O)C[C@@]4(C)O` [Rhomotoxin] were, in that order, inactive: -2.02, inactive: -0.412 and inactive: -0.961.
For `Oc1ncc(N(CCCl)CCCl)c(O)n1` [Uracil mustard] the same measures were inactive: -0.476, inactive: 1.37 and inactive: -1.21.
Consider `NC1=N[C@H](O)[C@H]2[C@H]3OC4(O)O[C@@H](C(O)[C@@]2(N1)[C@@H]4O)[C@]3(O)CO` (some centres not stated) [Tetrodotoxin], for which the TEAD-luciferase reporter activity is, setting by setting: (compound concentration: 200 nM) inactive: -0.428; (compound concentration: 2 uM) inactive: -0.56; (compound concentration: 10 uM) inactive: 0.218.

For the origin of these results see the supplement of paper PMC10735217.
